This is one part of the list.
compound: COc1ccc(Cn2ccc3cc(C)c(C(=O)NO)cc32)cc1; experiment: dose-dependent thermal stabilisation call (2D-TPP, DLPTP, 10% FDR) (binary (1 = stabilised)); higher = stabilised by the compound; details: system: HL-60 intact cells; concentration range 0.04-10 µM
Method: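 2D thermal proteome profiling in intact HL-60 cells treated with BRD-3811 (0, 0.04, 0.29, 2, 10 uM) for 90 min at 37 C, then heated 3 min at one of 12 temperatures (42-63.9 C). Soluble protein was quantified by TMT10 MS. The value is the DLPTP call of the paper: dose-dependent thermal stabilisation over all temperatures at 10% FDR (F-test of a dose-response against a flat model); one experiment, one call per tested protein.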

Amino acid sequences for entries named in this document (tags omitted). A change or cut given only in a name is not applied to a line headed by its entry.
UniProt Q9BZL1: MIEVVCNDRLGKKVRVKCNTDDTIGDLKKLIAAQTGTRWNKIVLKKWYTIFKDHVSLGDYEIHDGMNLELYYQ
UniProt P22314: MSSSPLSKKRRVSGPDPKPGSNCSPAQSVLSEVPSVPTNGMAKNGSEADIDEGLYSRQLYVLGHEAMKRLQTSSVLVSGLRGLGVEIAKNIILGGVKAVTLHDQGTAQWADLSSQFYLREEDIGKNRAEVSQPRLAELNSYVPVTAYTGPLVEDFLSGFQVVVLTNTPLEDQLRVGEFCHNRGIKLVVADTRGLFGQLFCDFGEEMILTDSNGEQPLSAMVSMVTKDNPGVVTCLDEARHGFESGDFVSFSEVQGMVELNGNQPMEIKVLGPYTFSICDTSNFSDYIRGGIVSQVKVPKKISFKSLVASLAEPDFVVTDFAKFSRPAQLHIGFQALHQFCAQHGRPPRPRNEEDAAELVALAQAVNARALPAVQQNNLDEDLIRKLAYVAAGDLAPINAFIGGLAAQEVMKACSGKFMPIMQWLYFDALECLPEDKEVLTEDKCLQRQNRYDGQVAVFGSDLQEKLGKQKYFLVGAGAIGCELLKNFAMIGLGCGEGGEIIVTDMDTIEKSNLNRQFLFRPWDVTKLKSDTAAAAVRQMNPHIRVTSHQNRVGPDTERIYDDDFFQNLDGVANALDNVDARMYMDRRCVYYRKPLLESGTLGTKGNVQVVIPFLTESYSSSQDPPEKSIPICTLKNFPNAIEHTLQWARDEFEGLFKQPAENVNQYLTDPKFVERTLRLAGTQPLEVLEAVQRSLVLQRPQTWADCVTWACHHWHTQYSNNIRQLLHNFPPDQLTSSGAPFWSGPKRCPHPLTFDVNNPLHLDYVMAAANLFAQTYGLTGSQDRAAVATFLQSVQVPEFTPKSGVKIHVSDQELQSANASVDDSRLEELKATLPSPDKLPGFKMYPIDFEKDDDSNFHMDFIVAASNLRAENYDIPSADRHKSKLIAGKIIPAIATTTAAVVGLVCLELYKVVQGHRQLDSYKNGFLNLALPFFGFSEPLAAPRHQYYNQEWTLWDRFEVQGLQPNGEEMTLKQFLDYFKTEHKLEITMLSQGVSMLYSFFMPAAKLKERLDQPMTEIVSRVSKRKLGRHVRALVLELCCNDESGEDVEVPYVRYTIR
UniProt P23381: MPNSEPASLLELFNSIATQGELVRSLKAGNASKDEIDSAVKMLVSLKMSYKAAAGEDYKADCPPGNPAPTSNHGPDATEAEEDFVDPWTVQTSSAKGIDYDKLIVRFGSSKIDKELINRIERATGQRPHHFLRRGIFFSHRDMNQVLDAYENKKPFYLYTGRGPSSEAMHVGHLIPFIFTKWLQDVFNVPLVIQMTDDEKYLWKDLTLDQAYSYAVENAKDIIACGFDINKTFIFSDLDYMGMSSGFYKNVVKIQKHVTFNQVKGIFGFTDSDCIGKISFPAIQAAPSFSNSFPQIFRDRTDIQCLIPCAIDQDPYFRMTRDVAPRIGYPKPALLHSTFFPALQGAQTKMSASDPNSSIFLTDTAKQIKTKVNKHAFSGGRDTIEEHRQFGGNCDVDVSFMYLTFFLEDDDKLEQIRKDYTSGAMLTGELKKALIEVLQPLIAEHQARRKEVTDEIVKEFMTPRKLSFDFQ
UniProt Q9Y5K5, whole entry: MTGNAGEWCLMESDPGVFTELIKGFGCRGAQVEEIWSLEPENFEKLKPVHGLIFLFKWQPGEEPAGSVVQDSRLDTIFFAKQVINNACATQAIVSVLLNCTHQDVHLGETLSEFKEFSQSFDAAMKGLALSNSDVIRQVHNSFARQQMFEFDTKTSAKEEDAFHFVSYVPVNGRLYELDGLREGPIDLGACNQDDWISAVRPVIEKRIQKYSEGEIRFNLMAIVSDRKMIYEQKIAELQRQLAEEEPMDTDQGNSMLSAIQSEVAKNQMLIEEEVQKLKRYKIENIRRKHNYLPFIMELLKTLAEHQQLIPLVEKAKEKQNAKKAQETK
UniProt O43709: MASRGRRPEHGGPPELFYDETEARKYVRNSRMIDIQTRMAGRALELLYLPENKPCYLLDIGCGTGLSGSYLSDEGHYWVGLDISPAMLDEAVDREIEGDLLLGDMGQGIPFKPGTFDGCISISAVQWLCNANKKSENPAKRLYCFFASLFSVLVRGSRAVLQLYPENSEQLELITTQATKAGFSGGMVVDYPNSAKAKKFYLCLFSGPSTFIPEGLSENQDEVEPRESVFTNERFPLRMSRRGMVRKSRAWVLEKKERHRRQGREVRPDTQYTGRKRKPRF
UniProt Q96LJ8: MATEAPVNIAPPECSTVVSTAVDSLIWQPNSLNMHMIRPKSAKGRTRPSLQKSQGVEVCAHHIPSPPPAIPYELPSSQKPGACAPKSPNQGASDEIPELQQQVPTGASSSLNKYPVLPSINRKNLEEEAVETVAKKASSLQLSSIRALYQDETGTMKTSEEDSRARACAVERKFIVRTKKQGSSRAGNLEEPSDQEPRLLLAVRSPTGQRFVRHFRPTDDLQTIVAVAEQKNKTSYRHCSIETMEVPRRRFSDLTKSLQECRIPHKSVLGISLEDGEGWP
UniProt Q9NYU2: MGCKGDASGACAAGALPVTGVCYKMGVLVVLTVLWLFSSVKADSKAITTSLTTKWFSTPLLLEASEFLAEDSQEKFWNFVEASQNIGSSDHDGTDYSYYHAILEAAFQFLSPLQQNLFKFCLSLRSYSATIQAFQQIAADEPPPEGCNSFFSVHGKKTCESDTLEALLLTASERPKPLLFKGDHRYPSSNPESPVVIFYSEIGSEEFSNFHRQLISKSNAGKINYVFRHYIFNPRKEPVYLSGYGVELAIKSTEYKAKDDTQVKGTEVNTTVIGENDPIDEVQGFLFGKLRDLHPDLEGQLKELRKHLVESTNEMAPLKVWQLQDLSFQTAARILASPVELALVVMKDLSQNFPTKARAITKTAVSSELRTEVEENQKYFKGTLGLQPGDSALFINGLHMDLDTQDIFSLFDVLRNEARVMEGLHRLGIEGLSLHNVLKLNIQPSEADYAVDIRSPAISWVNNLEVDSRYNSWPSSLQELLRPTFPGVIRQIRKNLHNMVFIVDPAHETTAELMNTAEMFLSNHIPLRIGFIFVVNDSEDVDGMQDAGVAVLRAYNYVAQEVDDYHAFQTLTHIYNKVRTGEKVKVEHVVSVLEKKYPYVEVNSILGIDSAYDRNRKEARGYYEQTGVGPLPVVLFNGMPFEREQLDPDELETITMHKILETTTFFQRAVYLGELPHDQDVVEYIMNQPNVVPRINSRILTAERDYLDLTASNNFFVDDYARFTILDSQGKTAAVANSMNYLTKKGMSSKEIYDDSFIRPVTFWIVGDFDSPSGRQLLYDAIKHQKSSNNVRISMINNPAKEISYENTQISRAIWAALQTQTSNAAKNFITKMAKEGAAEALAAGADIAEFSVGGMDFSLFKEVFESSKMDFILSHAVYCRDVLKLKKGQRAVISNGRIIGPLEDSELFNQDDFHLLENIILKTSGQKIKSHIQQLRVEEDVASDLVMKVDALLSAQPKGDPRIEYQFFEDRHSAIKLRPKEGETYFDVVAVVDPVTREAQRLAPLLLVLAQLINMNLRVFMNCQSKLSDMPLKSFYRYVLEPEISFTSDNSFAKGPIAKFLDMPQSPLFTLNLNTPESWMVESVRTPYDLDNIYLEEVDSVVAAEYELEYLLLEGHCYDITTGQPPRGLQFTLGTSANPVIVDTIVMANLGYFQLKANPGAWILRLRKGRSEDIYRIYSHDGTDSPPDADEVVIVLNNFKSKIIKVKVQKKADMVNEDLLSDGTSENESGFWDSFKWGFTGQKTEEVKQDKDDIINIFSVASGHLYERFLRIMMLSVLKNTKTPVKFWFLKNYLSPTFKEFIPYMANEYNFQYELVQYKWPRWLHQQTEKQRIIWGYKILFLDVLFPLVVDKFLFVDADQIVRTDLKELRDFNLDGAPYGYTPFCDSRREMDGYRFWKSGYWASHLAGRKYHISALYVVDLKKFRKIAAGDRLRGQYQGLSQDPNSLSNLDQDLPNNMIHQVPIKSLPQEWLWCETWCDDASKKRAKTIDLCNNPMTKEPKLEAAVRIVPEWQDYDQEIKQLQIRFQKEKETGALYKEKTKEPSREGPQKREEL
UniProt Q9BRG1: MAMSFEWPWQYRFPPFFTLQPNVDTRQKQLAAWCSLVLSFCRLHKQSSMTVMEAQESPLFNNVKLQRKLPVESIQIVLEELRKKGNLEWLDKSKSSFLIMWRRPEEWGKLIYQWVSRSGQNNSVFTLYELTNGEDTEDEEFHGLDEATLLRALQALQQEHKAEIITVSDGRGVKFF
UniProt Q92890: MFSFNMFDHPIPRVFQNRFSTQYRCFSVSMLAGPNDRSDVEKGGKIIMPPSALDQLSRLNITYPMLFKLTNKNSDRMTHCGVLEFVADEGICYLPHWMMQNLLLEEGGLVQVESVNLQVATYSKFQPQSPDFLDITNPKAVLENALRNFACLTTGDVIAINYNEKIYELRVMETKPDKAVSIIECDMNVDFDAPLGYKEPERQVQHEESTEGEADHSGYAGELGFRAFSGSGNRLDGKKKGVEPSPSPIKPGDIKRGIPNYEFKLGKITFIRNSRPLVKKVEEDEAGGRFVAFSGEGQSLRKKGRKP
UniProt Q9NQZ2: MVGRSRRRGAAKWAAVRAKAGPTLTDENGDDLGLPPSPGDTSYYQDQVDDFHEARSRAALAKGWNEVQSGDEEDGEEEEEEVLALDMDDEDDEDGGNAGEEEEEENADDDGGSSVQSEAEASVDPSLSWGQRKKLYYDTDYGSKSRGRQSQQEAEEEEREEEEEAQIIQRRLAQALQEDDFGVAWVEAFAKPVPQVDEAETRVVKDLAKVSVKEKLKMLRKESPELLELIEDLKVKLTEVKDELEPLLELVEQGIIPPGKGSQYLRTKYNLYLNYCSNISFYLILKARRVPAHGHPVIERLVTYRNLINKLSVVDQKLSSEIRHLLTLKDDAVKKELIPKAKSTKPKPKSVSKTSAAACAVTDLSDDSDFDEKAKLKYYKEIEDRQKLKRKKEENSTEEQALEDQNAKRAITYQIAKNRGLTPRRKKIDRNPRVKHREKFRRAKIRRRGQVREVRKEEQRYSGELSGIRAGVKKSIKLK
UniProt P68036, whole entry: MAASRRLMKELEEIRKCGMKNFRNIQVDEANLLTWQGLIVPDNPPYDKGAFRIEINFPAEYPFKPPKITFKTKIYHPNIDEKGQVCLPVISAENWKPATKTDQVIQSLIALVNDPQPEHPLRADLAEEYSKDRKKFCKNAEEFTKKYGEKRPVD
UniProt Q8N5M4: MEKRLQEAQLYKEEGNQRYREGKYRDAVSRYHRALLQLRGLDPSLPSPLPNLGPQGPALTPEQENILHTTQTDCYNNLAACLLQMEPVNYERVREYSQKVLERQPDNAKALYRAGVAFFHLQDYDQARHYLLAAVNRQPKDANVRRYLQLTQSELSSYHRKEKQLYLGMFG
UniProt Q9UN37: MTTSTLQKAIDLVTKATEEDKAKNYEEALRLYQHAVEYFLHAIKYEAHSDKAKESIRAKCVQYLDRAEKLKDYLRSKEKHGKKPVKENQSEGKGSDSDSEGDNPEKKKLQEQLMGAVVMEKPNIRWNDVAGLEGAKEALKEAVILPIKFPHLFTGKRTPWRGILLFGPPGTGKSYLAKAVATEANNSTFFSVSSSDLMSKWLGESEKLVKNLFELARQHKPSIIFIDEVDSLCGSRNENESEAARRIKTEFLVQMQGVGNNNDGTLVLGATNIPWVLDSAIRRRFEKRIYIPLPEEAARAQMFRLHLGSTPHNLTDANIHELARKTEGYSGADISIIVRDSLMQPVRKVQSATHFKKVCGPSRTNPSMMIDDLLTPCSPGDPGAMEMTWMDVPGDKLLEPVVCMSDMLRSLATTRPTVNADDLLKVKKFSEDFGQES
UniProt P62253: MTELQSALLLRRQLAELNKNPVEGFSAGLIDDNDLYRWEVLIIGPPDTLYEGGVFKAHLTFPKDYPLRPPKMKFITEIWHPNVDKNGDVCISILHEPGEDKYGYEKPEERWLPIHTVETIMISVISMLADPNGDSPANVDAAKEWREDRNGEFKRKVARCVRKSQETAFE

Target | dose-dependent thermal stabilisation call
UBL5 (UniProt Q9BZL1) | inactive: 0
TTLL12 (UniProt Q14166) | inactive: 0
U2AF2 (UniProt P26368) | inactive: 0
VLDLR (UniProt P98155) | inactive: 0
TXNIP (UniProt Q9H3M7) | inactive: 0
UBA1 (UniProt P22314) | inactive: 0
UBASH3B (UniProt Q8TF42) | inactive: 0
TXNL4B (UniProt Q9NX01) | inactive: 0
VPRBP (UniProt Q9Y4B6) | inactive: 0
WARS (UniProt P23381) | inactive: 0
TUFM (UniProt P49411) | inactive: 0
UTP23 (UniProt Q9BRU9) | inactive: 0
USO1 (UniProt O60763) | inactive: 0
UCHL5 (UniProt Q9Y5K5) | inactive: 0
TUBGCP5 (UniProt Q96RT8) | inactive: 0
UBAC1 (UniProt Q9BSL1) | inactive: 0
VAV3 (UniProt Q9UKW4) | inactive: 0
VRK3 (UniProt Q8IV63) | inactive: 0

Target | dose-dependent thermal stabilisation call
WBSCR22 (UniProt O43709) | inactive: 0
UBXN10 (UniProt Q96LJ8) | inactive: 0
UBA6 | inactive: 0
WBP4 (UniProt O75554) | inactive: 0
UBA2 (UniProt Q9UBT2) | inactive: 0
UTP14A (UniProt Q9BVJ6) | inactive: 0
UGCGL1 (UniProt Q9NYU2) | inactive: 0
VPS25 (UniProt Q9BRG1) | inactive: 0
UBXN4 (UniProt Q92575) | inactive: 0
UFD1L (UniProt Q92890) | inactive: 0
UTP3 (UniProt Q9NQZ2) | inactive: 0
UBE2L3 (UniProt P68036) | inactive: 0
TTC9C (UniProt Q8N5M4) | inactive: 0
TXNDC12 (UniProt O95881) | inactive: 0
VPS4A (UniProt Q9UN37) | inactive: 0
UBE2G1 (UniProt P62253) | inactive: 0
VISA (UniProt Q7Z434) | inactive: 0

Look-ups from above.
dose-dependent thermal stabilisation call with VAV3 (UniProt Q9UKW4) reads inactive: 0
dose-dependent thermal stabilisation call with VLDLR (UniProt P98155) reads inactive: 0

Reference: the supplement of paper PMC7666118
